From the DeepSol protein solubility set

Test: soluble on expression in E. coli; label from the status in PepcDB or PDB records

| Sequence | soluble on expression in E. coli |
| --- | --- |
| MKLVRFLMKLSHETVNIELKNGTQVSGTIMGVDVAMNTHLRAVSMTVKNKEPVKLDTLSIRGNNIRYIILPDPLALDTLLIDDEPRKKARAARAGASRGRGRGGMRGGRGGRGRGRGGPRGGGPRR | not soluble |
| EVKPEINFVNVGERCNVAGSRKFLRLINEKKYDEALSIARKQVEDGALIIDVNMDDGLLDAKEEMTTFLNLVASEPEIARVPVMIDSSKWEVIEAGLKCLQGKSIVNSISLKEGEEKFLEHARTVRQYGAAVVVMAFDEKGQADTATRKIEVCERAYHLLVDKIGFNPHDIIFDPNVLAVATGIEEHNNYAVDFIEATAWIKKNLPGAHISGGVSNLSFSFRGNNYIREAMHAVFLYHAIQKGMDMGIVNPGTSVLYTDIPADVLERIEDVVLNRRSDAAERLIELADRLKEASAGNTSAGQP | soluble |
